Measurements reported in PubChem BioAssay AID504791 (Drosophila RNAi Screening Center, 2011).

- Assay: 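Genes whose knock-down strengthens or weakens small-RNA reporter silencing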 (primary screen)
- Cells: Drosophila S2-derived reporter cells
- Reagents: long dsRNA against Drosophila genes, about 150-250 ng dsRNA per well (siRNA assay); about 80-120 ng (miRNA assay)
- Timing: about 5 days (siRNA assay); about 4 days (miRNA assay)
- Treatment: copper sulfate induction of reporters: 25 µM (siRNA assay); 200 mM stated (miRNA assay), 1-2 days before reading
- Measurement: 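Per-well ratio of Renilla over firefly light, expressed relative to that plate's average ratio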
- Hit rule: 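First-pass picks had plate-scaled ratios over 1.5 for the siRNA assay, over 1.6 for the miRNA assay, or under 0.6; two distinct dsRNAs had to score alike on retest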
The deposit covers about 23,000 reagents; shown is an unselected part of those with a known target gene and a result. In the full data, 199 (0.86%) are marked active. 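Plate-scaled ratios behind the calls are not deposited; printed light signals are raw; many rows marked increased or decreased are still called inactive.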 A number with no mark means an inactive call. Names joined by + are all predicted targets of the reagent. Not given: the direction of the score.

{"Gene": "CG11630 (GeneID 35429)", "dsRNA": "DRSC03696", "stable assay Renilla, run 1 (luminescence)": 7418, "stable assay firefly, run 1 (luminescence)": 3.68e5}
{"Gene": "CG15743 (GeneID 32279)", "dsRNA": "DRSC19709", "stable assay Renilla, run 1 (luminescence)": 5428, "stable assay firefly, run 1 (luminescence)": 4.38e5}
{"Gene": "Trf4 (GeneID 33452)", "dsRNA": "DRSC00729", "stable assay Renilla, run 1 (luminescence)": 8350, "stable assay firefly, run 1 (luminescence)": 4.22e5}
{"Gene": "lmd (GeneID 42717)", "dsRNA": "DRSC15618", "stable assay Renilla, run 1 (luminescence)": 8578, "stable assay firefly, run 1 (luminescence)": 3.62e5}
{"Gene": "CG33233 (GeneID 2769005)", "dsRNA": "DRSC08239", "stable assay Renilla, run 1 (luminescence)": 6811, "stable assay firefly, run 1 (luminescence)": 3.55e5}
{"Gene": "Arglu1 (GeneID 34320)", "dsRNA": "DRSC02909", "stable assay Renilla, run 1 (luminescence)": 8331, "stable assay firefly, run 1 (luminescence)": 3.76e5}
{"Gene": "oxt (GeneID 38288)", "dsRNA": "DRSC08522", "stable assay Renilla, run 1 (luminescence)": 10456, "stable assay firefly, run 1 (luminescence)": 3.74e5}
{"Gene": "Rim (GeneID 42150)", "dsRNA": "DRSC16224", "stable siRNA reporter change": "reporter ratio lowered past the hit cutoff", "stable assay Renilla, run 1 (luminescence)": 6551, "stable assay firefly, run 1 (luminescence)": 5.21e5}
{"Gene": "Rim (GeneID 42150)", "dsRNA": "DRSC16225", "stable assay Renilla, run 1 (luminescence)": 7793, "stable assay firefly, run 1 (luminescence)": 3.00e5}
{"Gene": "Rim (GeneID 42150)", "dsRNA": "DRSC16226", "stable assay Renilla, run 1 (luminescence)": 8147, "stable assay firefly, run 1 (luminescence)": 3.85e5}
{"Gene": "Rim (GeneID 42150)", "dsRNA": "DRSC16227", "stable assay Renilla, run 1 (luminescence)": 7646, "stable assay firefly, run 1 (luminescence)": 5.13e5}
{"Gene": "Rim (GeneID 42150)", "dsRNA": "DRSC22406", "stable assay Renilla, run 1 (luminescence)": 3720, "stable assay firefly, run 1 (luminescence)": 3.50e5}
{"Gene": "Rh5 (GeneID 34615)", "dsRNA": "DRSC03412", "stable assay Renilla, run 1 (luminescence)": 7175, "stable assay firefly, run 1 (luminescence)": 3.00e5}
{"Gene": "CG11768 (GeneID 41046)", "dsRNA": "DRSC14377", "stable siRNA reporter change": "reporter ratio raised past the hit cutoff", "stable assay Renilla, run 1 (luminescence)": 6815, "stable assay firefly, run 1 (luminescence)": 2.10e5}
{"Gene": "CG11768 (GeneID 41046)", "dsRNA": "DRSC23219", "stable assay Renilla, run 1 (luminescence)": 5206, "stable assay firefly, run 1 (luminescence)": 3.75e5}
{"Gene": "Spn77Bb + Spn77Bc", "dsRNA": "DRSC10689", "stable assay Renilla, run 1 (luminescence)": 7079, "stable assay firefly, run 1 (luminescence)": 5.00e5}
{"Gene": "Spn77Bb + Spn77Bc", "dsRNA": "DRSC11793", "stable assay Renilla, run 1 (luminescence)": 7138, "stable assay firefly, run 1 (luminescence)": 4.77e5}
{"Gene": "CG10993 (GeneID 32344)", "dsRNA": "DRSC19362", "stable assay Renilla, run 1 (luminescence)": 5310, "stable assay firefly, run 1 (luminescence)": 4.87e5}
{"Gene": "c(3)G (GeneID 47765)", "dsRNA": "DRSC15245", "stable assay Renilla, run 1 (luminescence)": 10038, "stable assay firefly, run 1 (luminescence)": 4.22e5}
{"Gene": "ey (GeneID 43812)", "dsRNA": "DRSC17173", "stable assay Renilla, run 1 (luminescence)": 6519, "stable assay firefly, run 1 (luminescence)": 3.59e5}
{"Gene": "Porin2 (GeneID 34499)", "dsRNA": "DRSC02584", "stable assay Renilla, run 1 (luminescence)": 8294, "stable assay firefly, run 1 (luminescence)": 5.22e5}
{"Gene": "Nepl13 (GeneID 42699)", "dsRNA": "DRSC15632", "stable assay Renilla, run 1 (luminescence)": 6838, "stable assay firefly, run 1 (luminescence)": 3.17e5}
{"Gene": "CG13473 (GeneID 39603)", "dsRNA": "DRSC10017", "stable assay Renilla, run 1 (luminescence)": 7852, "stable assay firefly, run 1 (luminescence)": 2.69e5}
{"Gene": "CG8303 (GeneID 36858)", "dsRNA": "DRSC07140", "stable assay Renilla, run 1 (luminescence)": 5975, "stable assay firefly, run 1 (luminescence)": 2.94e5}
{"Gene": "tzn (GeneID 40299)", "dsRNA": "DRSC11755", "stable assay Renilla, run 1 (luminescence)": 7543, "stable assay firefly, run 1 (luminescence)": 3.96e5}
{"Gene": "CG15263 (GeneID 34898)", "dsRNA": "DRSC01974", "stable assay Renilla, run 1 (luminescence)": 4503, "stable assay firefly, run 1 (luminescence)": 4.80e5}
{"Gene": "CG10969 (GeneID 39451)", "dsRNA": "DRSC09811", "stable assay Renilla, run 1 (luminescence)": 5527, "stable assay firefly, run 1 (luminescence)": 3.90e5}
{"Gene": "CG5455 (GeneID 43196)", "dsRNA": "DRSC15805", "stable assay Renilla, run 1 (luminescence)": 8257, "stable assay firefly, run 1 (luminescence)": 5.30e5}

2 entries already listed, arranged by “stable assay firefly, run 1 (luminescence)”, high to low.
{"Gene": "Rim (GeneID 42150)", "dsRNA": "DRSC16226", "stable assay Renilla, run 1 (luminescence)": 8147, "stable assay firefly, run 1 (luminescence)": 3.85e5}
{"Gene": "Rim (GeneID 42150)", "dsRNA": "DRSC16225", "stable assay Renilla, run 1 (luminescence)": 7793, "stable assay firefly, run 1 (luminescence)": 3.00e5}
